Source: PubChem BioAssay AID248 (DTP/NCI, 2004)
The list does not hold the whole screen: it gathers some chemical classes. Other doses and runs of a compound may be missing. T/C gives the treated animals as a percentage of the vehicle group. Some doses have a count of surviving animals in place of a T/C: the source files T/C as zero there, which appears to mark a toxic dose or a test without result, not a measured value. Some doses without a T/C left all or most animals alive at the check, yet need not have been tolerated: survival well below the control is almost never listed, so the zero probably covers shortened survival too. Counts of survivors are from the toxicity check (mostly the fifth day) where no day follows; animals may have died later. Schedules are NCI's codes, taken here to give the interval after Q, in days (D) or hours (H), and the number of doses after X. For survival time, the PubChem record calls one and a half times the control and up active, and a quarter to a half above the control has no call in these data; cut-offs in other NCI protocols can differ. Some entries show no survivor count and are marked so; the dose need not have been tolerated.

Tested on: L1210 leukemia ip in BDF1 mice, survival T/C
Test: NCI In Vivo Anticancer Drug Screen. Data for tumor model L1210 Leukemia (intraperitoneal) in B6D2F1 (BDF1) mice
Settings: T/C endpoint: mean survival time, higher T/C = longer survival

O=C1c2cc([N+](=O)[O-])cc([N+](=O)[O-])c2-c2c1cc([N+](=O)[O-])cc2[N+](=O)[O-]
T/C (dose: 50.0 mg/kg/injection, schedule: Q01DX009 (ip), vehicle: Klucel (hydroxypropylcellulose) (HPC)): 101 % of control [survivor count not shown] | T/C (dose: 100.0 mg/kg/injection, schedule: Q01DX009 (ip), vehicle: Klucel (hydroxypropylcellulose) (HPC)): 91 % of control [survivor count not shown]

Nc1cc([As]=O)ccc1O (stereo not drawn)
T/C (dose: 9.5 mg/kg/injection, schedule: Q01DX001 (ip), vehicle: other): 103 % of control | T/C (dose: 19.0 mg/kg/injection, schedule: Q01DX001 (ip), vehicle: other): 91 % of control | T/C (dose: 38.0 mg/kg/injection, schedule: Q01DX001 (ip), vehicle: other): 105 % of control

CCOc1ccc2ccccc2c1OCC.O=C1c2cc([N+](=O)[O-])ccc2-c2c1cc([N+](=O)[O-])cc2[N+](=O)[O-]
T/C (dose: 6.25 mg/kg/injection, schedule: Q04DX002 (ip), vehicle: saline with Tween-80): 98 % of control | T/C (dose: 12.5 mg/kg/injection, schedule: Q04DX002 (ip), vehicle: saline with Tween-80): 91 % of control | survivor count (dose: 25.0 mg/kg/injection, schedule: Q04DX002 (ip), vehicle: saline with Tween-80): 3 of 3
